From the supplement of paper PMC12823440, “Inhibitors supercharge kinase turnover through native proteolytic circuits” (Nature, 2025)
The list shows a part of the results. Hit calls seldom repeat between salt and free forms of one compound.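 Kinases were expressed as nanoluciferase fusions in K562 cells and luminescence was read every 4 h between 2 and 18 h as percent of control, DMSO set to 100% and a positive control to 0%. A time point counts as decreased when the signal drops significantly (2 sigma). The hit call is the authors' own, does not follow from the count of time points alone, and its rule is not shown.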

Chains of the proteins cited; added tags and fusions are not shown. Lines headed by an entry give the natural chain unless they say otherwise; changes in a name come on top.
UniProt P50613: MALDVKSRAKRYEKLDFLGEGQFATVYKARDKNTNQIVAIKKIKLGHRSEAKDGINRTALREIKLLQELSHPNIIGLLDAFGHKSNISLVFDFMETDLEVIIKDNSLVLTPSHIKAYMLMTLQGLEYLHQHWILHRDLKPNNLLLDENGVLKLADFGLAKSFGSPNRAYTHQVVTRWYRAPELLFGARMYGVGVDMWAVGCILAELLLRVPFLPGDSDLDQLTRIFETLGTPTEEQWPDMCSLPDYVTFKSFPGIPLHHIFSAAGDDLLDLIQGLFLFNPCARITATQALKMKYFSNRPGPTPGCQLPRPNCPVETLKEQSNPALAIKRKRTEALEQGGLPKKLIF
UniProt P50750, whole entry: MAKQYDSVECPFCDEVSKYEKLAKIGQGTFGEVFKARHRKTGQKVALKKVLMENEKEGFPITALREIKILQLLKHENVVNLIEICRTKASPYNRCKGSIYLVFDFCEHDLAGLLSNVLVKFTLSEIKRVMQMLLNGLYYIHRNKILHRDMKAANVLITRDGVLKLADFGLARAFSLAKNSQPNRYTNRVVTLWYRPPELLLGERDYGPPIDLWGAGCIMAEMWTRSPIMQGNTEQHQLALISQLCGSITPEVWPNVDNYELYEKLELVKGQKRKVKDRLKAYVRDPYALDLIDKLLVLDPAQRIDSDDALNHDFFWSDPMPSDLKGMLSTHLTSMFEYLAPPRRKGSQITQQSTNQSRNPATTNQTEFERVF
UniProt O96017, whole entry: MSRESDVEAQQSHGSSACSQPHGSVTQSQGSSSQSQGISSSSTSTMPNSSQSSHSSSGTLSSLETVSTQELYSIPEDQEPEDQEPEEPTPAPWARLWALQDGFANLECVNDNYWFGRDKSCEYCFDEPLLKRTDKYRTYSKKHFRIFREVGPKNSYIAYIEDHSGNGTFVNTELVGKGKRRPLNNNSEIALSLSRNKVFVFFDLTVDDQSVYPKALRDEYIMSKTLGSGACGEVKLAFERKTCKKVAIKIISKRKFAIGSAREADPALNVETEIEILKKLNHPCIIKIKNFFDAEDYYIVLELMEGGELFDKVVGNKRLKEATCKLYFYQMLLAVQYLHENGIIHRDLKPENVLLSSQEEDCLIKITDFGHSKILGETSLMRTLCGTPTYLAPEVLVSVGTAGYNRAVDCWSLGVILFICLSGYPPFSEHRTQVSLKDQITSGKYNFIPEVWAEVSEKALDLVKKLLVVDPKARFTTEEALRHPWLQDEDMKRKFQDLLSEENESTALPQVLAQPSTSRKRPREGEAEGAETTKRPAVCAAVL
UniProt P07333, whole entry: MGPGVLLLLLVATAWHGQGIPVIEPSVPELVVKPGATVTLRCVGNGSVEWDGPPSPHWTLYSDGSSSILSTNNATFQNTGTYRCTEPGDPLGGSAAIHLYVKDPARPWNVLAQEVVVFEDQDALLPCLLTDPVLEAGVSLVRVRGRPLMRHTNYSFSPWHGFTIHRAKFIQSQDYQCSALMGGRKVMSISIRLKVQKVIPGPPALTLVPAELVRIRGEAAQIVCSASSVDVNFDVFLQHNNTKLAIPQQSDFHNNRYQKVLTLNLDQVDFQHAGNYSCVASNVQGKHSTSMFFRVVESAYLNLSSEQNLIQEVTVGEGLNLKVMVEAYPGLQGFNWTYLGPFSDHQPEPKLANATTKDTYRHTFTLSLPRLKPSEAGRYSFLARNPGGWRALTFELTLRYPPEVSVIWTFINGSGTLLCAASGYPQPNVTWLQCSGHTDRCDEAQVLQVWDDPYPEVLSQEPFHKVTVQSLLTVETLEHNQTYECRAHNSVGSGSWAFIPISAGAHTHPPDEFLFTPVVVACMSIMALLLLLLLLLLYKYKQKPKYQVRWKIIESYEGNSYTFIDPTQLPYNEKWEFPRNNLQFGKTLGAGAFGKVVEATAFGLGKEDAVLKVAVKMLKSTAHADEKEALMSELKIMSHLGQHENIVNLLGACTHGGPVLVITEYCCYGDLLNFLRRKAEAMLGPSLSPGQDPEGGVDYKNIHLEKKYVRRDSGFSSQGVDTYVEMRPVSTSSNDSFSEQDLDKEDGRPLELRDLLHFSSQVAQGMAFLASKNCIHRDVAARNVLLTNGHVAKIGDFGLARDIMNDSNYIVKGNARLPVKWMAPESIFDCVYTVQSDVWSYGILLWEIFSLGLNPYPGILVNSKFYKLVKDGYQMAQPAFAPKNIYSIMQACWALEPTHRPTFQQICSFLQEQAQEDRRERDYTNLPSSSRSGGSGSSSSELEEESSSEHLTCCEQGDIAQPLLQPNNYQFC
UniProt P41240: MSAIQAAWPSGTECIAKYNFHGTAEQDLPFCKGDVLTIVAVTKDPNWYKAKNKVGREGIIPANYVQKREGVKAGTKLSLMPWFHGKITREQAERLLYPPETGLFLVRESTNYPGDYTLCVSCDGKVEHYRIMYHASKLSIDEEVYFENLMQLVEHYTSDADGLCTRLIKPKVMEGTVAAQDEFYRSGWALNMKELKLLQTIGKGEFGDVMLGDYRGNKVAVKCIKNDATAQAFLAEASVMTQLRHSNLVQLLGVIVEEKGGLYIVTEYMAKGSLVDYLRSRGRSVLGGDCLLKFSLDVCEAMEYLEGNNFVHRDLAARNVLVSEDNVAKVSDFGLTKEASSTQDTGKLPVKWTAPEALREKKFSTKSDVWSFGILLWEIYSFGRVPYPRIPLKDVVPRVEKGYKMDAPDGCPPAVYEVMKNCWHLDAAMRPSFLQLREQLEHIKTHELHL
UniProt P48729: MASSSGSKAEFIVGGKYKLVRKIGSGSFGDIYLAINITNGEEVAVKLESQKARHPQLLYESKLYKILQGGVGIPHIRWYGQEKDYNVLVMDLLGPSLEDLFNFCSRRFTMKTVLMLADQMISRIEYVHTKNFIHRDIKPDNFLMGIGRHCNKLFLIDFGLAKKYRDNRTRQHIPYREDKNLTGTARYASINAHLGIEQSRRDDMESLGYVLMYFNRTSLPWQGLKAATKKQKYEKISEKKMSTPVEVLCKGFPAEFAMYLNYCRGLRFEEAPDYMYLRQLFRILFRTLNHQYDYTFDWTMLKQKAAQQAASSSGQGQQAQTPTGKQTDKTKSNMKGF
UniProt P48730: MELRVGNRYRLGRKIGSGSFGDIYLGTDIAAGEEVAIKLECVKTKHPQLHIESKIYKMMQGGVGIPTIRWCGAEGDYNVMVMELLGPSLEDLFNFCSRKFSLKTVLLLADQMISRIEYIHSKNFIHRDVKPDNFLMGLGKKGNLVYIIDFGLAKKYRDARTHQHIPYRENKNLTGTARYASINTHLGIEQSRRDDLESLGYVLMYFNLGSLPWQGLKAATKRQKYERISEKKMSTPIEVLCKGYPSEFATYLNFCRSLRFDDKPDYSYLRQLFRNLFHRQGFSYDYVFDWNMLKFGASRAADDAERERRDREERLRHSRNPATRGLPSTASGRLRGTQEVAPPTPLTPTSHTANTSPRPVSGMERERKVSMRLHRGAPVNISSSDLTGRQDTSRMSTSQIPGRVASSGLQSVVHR
UniProt Q08345: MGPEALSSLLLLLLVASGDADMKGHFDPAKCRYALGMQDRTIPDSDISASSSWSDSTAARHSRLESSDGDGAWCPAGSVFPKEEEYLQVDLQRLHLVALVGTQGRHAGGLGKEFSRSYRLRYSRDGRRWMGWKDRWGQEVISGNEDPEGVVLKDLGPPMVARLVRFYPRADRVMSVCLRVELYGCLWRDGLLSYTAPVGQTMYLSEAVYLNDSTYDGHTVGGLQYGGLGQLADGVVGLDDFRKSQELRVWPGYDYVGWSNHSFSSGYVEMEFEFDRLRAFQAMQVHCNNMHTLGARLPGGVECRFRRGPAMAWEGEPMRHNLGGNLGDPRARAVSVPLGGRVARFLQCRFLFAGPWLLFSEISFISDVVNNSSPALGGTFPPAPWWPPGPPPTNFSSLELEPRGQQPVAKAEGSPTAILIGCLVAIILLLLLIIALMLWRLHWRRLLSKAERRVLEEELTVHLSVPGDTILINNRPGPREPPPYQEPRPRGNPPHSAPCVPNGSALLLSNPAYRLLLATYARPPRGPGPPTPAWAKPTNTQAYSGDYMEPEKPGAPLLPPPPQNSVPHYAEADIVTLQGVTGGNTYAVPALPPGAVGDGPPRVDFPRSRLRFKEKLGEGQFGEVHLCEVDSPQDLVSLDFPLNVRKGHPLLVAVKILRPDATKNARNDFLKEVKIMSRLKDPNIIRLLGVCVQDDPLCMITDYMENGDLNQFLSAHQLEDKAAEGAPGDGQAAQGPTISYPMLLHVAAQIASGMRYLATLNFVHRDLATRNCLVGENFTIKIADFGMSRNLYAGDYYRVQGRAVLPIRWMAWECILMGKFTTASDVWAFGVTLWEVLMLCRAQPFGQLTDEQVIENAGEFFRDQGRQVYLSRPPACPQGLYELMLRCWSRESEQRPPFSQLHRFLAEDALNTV
UniProt Q9Y463, whole entry, looked up: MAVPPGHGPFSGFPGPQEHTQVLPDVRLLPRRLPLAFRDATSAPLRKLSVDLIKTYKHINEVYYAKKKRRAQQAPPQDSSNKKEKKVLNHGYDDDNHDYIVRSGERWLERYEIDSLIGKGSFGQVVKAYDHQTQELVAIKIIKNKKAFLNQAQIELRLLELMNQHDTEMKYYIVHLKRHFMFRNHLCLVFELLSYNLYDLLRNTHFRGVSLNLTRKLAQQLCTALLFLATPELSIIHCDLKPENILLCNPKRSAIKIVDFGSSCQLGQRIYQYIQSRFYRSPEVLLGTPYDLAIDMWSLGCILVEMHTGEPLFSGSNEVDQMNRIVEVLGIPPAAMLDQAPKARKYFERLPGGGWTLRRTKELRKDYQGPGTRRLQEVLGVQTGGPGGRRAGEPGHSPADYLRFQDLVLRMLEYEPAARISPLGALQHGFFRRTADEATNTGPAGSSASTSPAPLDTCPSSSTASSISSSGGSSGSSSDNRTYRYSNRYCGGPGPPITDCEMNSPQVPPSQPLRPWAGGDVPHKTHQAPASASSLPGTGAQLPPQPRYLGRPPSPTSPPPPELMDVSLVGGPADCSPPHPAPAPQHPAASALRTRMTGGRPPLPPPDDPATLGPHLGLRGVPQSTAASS
UniProt Q92630: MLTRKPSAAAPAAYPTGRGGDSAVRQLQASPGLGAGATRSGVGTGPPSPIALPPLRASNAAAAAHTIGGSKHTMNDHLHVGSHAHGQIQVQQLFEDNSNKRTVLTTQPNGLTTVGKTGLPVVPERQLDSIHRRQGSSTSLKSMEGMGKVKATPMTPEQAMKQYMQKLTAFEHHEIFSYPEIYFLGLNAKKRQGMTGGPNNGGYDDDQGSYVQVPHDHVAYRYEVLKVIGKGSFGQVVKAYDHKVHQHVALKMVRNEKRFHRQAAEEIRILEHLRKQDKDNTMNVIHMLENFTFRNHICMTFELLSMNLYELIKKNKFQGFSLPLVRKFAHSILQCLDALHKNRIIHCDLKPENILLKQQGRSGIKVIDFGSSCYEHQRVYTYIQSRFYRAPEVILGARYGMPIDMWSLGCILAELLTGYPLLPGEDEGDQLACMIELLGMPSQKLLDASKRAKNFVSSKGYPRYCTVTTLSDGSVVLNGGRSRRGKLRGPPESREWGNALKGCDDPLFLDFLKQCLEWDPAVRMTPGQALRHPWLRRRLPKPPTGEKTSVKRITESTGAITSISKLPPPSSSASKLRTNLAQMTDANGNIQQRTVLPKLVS

How the values were obtained:
Assay in all cases: kinase-Nluc reporter destabilization hit call (1 = scored as downregulated) (binary); higher = compound decreases kinase abundance
Settings in all cases: K562; 2-18 h
CDK7 = CDK7 (UniProt P50613)
CDK9 = CDK9 (UniProt P50750)
CHEK2 = CHEK2 (UniProt O96017)
CSF1R = CSF1R (UniProt P07333)
CSK = CSK (UniProt P41240)
CSNK1A1 = CSNK1A1 (UniProt P48729)
CSNK1D = CSNK1D (UniProt P48730)
DDR1 = DDR1 (UniProt Q08345)
DYRK1B = DYRK1B (UniProt Q9Y463)
DYRK2 = DYRK2 (UniProt Q92630)

Measured: kinase-Nluc reporter destabilization hit call

CN1C(=O)N[C@@H](Cc2c[nH]c3c(Cl)cccc23)C1=O [Necrostatin 2 (S enantiomer)] (10 µM)
inactive: CDK7 = 0 | CDK9 = 0 | CHEK2 = 0 | CSF1R 0 | CSK 0 | CSNK1A1 = 0 | CSNK1D 0 | DDR1 = 0 | DYRK1B 0 | DYRK2 = 0

O=C1Cc2ccccc2N1 [Oxindole] (10 µM)
inactive: CDK7 = 0 | CDK9 = 0 | CHEK2 = 0 | CSF1R 0 | CSK 0 | CSNK1A1 = 0 | CSNK1D 0 | DDR1 = 0 | DYRK1B 0 | DYRK2 = 0

CC(=O)Nc1nc(C)c(-c2cc(C)c3c(c2)CN([C@@H](C)C2CC2)C3=O)s1 (10 µM)
inactive: CDK7 = 0 | CDK9 = 0 | CHEK2 = 0 | CSF1R 0 | CSK 0 | CSNK1A1 = 0 | CSNK1D 0 | DDR1 = 0 | DYRK1B 0 | DYRK2 = 0
